Article PMC8424372 (Journal of Pharmaceutical Analysis, 2020)

Tests used:
[1] = type: in vivo, human
[2] = Freeze-thaw stability in human plasma; type: in vitro ADME; details: −80 °C/25 °C, mean ± SD, n = 5, %

- Shape of plasma concentration-time profile ([1]; after oral Gumiganghwal-tang tablets (9.6 g), humans): double peaks
- AUC(0-inf) ([1]; male, human, plasma, po, 9.6 g): 33.4 ± 8.81 ng·h/mL
- Cmax ([1]; male, human, plasma, po, 9.6 g): 3.26 ± 0.94 ng/mL
- Tmax ([1]; male, human, plasma, po, 9.6 g): 6.21 ± 1.02 h
- Vd/F ([1]; male, human, plasma, po, 9.6 g): 33.3 ± 7.15 L
- half-life ([1]; male, human, plasma, po, 9.6 g): 22.1 ± 3.24 h
- Freeze-thaw stability (3 cycles) ([2]; spiked conc. 2 ng/mL): 97.53 ± 3.94%
- Freeze-thaw stability (3 cycles) ([2]; spiked conc. 400 ng/mL): 99.32 ± 2.38%
Compound: C=C1CCC[C@]2(C)C=C3OC(=O)C(C)=C3C[C@@H]12 [Atractylenolide I, atractylenolide I]
